# Assay results reported in the supplement of paper PMC10849652.
# Amino acid sequences for entries named in this document (tags omitted). A change or cut given only in a name is not applied to a line headed by its entry.
# UniProt Q6ZPD9: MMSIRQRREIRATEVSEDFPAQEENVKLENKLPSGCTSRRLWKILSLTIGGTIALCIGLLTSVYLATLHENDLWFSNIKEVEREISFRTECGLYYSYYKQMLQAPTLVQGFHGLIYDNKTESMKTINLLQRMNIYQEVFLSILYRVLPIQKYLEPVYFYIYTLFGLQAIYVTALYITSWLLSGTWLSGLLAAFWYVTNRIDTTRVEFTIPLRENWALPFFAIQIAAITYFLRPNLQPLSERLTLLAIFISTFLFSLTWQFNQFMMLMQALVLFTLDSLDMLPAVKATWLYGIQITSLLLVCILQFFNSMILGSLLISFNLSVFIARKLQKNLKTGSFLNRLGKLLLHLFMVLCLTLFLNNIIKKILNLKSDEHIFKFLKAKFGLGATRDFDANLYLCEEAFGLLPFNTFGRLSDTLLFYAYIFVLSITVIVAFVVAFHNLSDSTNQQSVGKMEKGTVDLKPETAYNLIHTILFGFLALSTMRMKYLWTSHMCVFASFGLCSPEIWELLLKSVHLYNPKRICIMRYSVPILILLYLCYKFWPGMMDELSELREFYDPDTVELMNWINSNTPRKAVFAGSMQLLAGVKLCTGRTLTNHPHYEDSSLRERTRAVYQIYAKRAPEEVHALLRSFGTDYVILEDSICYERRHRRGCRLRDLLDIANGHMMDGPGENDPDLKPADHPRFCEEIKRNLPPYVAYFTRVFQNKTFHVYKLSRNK
# UniProt O60869: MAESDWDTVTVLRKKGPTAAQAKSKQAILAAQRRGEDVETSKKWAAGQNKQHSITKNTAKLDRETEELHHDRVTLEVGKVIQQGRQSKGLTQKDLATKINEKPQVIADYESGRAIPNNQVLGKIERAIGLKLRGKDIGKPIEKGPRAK
# UniProt Q15125: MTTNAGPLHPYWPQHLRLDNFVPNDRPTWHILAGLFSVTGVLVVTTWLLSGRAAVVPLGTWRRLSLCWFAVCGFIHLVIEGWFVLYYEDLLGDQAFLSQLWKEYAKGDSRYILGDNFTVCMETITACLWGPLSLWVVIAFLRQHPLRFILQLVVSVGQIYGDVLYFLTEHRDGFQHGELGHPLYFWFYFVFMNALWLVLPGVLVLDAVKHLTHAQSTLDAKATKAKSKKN
# UniProt Q9UDY4: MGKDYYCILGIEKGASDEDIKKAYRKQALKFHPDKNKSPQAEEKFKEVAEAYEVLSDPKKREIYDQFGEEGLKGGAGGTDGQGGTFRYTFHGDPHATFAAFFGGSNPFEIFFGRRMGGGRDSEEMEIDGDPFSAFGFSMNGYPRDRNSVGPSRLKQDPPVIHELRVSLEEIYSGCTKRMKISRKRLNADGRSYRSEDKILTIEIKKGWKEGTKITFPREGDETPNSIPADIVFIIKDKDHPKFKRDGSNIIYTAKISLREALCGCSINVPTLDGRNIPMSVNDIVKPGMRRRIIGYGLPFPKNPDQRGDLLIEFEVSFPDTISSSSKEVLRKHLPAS
# UniProt Q92785, whole entry, looked up: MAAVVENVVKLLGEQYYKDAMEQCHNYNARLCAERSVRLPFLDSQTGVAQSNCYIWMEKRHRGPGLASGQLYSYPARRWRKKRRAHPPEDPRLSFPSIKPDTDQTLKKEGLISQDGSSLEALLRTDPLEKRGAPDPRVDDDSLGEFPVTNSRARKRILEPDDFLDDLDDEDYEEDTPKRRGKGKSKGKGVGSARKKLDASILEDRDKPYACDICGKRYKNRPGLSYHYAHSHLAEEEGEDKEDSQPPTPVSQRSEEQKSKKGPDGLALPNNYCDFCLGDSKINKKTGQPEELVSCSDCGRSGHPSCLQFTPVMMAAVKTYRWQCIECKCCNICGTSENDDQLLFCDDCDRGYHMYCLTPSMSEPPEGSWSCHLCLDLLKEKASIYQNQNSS
# UniProt Q9BU89: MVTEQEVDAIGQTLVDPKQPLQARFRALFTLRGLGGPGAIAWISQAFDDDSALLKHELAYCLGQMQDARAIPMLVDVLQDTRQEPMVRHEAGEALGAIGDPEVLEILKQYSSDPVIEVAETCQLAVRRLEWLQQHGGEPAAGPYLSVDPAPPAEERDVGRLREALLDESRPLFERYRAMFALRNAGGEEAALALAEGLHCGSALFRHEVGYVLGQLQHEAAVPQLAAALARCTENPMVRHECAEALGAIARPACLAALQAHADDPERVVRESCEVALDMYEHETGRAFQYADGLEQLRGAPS
# UniProt Q8TBM8: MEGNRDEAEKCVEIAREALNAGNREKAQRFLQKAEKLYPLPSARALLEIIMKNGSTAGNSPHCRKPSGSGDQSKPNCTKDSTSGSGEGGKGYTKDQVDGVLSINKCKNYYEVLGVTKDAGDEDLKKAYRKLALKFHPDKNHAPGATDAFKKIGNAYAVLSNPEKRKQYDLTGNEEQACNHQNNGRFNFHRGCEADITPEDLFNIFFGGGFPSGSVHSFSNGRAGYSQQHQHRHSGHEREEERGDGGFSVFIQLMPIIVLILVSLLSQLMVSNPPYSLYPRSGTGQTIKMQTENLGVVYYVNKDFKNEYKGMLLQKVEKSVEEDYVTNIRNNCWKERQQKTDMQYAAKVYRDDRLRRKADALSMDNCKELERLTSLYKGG
# UniProt Q96G46: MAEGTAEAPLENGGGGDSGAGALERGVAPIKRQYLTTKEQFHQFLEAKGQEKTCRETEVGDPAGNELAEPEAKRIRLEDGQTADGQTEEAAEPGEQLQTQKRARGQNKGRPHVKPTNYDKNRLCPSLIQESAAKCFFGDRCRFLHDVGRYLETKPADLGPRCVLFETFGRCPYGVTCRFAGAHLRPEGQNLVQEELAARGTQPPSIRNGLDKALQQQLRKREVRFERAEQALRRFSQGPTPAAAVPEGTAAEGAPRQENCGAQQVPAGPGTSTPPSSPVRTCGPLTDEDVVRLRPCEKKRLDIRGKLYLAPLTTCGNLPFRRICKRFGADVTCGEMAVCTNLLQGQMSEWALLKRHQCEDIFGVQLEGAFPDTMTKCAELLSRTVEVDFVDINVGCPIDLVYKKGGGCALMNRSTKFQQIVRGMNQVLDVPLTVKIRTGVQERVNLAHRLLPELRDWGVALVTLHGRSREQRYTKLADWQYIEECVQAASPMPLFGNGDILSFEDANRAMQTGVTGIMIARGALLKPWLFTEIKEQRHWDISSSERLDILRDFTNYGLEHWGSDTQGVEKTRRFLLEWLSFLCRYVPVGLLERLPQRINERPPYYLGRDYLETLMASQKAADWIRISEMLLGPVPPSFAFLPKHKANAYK
# UniProt Q96F86: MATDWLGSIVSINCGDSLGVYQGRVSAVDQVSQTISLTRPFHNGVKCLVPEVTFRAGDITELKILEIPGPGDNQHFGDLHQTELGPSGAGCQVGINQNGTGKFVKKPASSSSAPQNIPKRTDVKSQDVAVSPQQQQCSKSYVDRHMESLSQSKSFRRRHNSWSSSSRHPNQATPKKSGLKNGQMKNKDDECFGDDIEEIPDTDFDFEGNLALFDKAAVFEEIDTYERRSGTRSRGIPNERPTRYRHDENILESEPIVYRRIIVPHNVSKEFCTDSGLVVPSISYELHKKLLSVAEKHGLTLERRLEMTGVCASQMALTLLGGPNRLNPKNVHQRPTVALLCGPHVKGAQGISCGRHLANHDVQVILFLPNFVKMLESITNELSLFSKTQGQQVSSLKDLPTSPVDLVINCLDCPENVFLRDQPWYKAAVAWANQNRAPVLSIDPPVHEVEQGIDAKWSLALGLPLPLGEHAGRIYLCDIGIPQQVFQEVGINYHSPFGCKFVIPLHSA
# UniProt P50570: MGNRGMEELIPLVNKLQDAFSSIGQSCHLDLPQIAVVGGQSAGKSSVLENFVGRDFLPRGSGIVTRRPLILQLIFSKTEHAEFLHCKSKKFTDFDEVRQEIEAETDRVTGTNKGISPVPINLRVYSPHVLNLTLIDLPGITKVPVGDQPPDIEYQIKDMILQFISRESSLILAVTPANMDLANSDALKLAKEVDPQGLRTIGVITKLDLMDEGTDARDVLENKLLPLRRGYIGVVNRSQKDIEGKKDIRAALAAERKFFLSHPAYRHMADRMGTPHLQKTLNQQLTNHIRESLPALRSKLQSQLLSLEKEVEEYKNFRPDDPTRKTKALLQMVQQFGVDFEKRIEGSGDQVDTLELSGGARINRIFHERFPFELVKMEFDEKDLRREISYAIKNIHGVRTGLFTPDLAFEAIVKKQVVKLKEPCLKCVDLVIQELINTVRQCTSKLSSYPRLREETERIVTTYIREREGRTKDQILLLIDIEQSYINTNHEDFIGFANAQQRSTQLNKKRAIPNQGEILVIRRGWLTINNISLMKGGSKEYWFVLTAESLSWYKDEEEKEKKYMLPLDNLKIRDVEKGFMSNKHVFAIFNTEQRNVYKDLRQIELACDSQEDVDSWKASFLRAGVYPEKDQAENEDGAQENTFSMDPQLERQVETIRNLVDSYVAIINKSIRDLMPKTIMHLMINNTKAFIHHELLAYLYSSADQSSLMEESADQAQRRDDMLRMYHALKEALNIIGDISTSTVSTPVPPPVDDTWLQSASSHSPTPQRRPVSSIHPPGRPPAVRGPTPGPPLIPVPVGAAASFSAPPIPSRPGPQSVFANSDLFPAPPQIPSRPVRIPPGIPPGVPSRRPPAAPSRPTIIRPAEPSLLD
# UniProt Q6P2E9: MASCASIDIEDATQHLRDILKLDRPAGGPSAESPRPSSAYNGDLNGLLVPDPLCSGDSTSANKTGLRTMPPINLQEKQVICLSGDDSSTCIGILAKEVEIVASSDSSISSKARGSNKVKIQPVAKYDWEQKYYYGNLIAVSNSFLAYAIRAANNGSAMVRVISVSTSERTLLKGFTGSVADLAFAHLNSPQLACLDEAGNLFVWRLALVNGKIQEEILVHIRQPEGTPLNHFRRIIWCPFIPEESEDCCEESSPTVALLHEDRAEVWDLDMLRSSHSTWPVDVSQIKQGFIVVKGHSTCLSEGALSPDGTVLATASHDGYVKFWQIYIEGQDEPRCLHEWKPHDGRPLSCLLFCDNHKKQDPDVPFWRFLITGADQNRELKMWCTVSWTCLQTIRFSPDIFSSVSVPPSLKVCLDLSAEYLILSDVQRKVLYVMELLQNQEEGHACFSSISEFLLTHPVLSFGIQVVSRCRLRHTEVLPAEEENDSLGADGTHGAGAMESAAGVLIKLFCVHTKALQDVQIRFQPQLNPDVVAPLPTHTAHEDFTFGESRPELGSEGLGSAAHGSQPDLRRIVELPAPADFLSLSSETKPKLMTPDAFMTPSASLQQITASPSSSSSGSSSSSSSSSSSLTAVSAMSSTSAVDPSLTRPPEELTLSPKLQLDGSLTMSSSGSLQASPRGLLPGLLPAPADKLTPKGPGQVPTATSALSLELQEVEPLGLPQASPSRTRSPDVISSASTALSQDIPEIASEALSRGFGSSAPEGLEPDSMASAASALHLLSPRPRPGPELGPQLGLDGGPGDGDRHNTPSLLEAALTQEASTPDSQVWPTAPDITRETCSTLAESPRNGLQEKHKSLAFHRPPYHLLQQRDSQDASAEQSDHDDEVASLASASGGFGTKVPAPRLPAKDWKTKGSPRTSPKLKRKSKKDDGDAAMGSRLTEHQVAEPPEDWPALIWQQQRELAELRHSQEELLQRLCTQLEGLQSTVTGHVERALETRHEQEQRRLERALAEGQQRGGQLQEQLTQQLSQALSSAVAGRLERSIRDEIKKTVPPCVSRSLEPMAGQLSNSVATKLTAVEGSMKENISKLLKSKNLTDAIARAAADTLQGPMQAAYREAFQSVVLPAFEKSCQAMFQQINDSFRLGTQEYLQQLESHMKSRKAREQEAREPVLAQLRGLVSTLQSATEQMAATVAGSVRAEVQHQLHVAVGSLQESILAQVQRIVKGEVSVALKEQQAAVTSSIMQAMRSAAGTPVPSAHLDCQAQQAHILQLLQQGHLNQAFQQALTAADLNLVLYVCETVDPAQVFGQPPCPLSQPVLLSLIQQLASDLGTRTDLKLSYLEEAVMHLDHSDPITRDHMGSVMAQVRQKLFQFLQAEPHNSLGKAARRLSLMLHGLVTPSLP
# UniProt Q96KC8: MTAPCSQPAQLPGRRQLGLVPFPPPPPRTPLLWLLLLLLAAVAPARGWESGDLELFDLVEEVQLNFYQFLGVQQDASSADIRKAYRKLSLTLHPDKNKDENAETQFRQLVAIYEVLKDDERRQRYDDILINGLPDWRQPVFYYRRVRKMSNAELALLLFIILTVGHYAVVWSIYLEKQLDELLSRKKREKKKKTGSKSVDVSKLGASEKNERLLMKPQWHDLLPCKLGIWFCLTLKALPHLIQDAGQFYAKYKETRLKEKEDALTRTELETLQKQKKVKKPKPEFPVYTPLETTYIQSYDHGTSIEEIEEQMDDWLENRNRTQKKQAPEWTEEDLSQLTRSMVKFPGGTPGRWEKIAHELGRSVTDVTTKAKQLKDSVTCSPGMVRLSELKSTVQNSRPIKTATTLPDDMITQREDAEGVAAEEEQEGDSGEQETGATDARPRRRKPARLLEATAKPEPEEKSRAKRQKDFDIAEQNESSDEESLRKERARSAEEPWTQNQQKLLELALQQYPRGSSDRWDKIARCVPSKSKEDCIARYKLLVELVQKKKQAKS
# UniProt Q9P2X0: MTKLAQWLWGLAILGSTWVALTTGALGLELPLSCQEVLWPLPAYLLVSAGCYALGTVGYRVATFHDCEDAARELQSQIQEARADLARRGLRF
# The other results are listed elsewhere or left out.
# What was measured:
# Test in all cases: log2 fold change, soluble protein after heating vs DMSO (PISA); higher = thermal stabilisation; K562 cells, 10 uM, 30 min; active = over 0.2 and 3.5 SD of the protein, either way, in both replicates (recomputed)
# [1] = compound: CC[C@@H]1C(=O)N(C)c2cnc(Nc3ccc(C(=O)NC4CCN(C)CC4)cc3OC)nc2N1C1CCCC1
# How it was run: (§1)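 Soluble protein was defined as the supernatant after 21,000xg for 90 min. It came from K562 cells at 2×10^6 cells/mL given 10 μM compound for 30 min, heated in aliquots for 3 min across 48°C-58°C, pooled, and extracted in PBS with 0.5% NP-40 at 4°C, and was quantified by TMTpro 16plex LC-MS/MS with equalised channel sums. Thermal stability against control samples, from duplicates, is reported as log2 fold change.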
# volasertib = compound: CC[C@@H]1C(=O)N(C)c2cnc(Nc3ccc(C(=O)N[C@H]4CC[C@H](N5CCN(CC6CC6)CC5)CC4)cc3OC)nc2N1C(C)C [volasertib]
# How it was run: as §1
# [2] = compound: CC[C@H](C)N1C=C(C2=C(C=C(C=C21)C3=CN=C(C=C3)N4CCNCC4)C(=O)NCC5=C(C=C(NC5=O)C)C)C
# How it was run: as §1
# epoxomicin = compound: CC[C@H](C)[C@@H](C(=O)N[C@@H]([C@@H](C)O)C(=O)N[C@@H](CC(C)C)C(=O)[C@]1(CO1)C)NC(=O)[C@H]([C@@H](C)CC)N(C)C(=O)C [epoxomicin]
# How it was run: as §1
# [3] = compound: CCn1c(C(=O)N(C2CC2)C2CC2)cc2c3c(ncn3C)c(Nc3cc(C)n(C)n3)nc21
# How it was run: as §1
# [4] = compound: CCn1cc(-c2ccnc3[nH]c(-c4cccc(CN(C)C)c4)cc23)c(-c2ccc(NC(=O)N(C)C)cc2)n1
# How it was run: as §1
# [5] = compound: CN(C)CC(=O)Nc1ccc2[nH]c(=O)c3ccccc3c2c1
# How it was run: as §1
# rosiglitazone = compound: CN(CCOC1=CC=C(C=C1)C[C@H]2C(=O)NC(=O)S2)C3=CC=CC=N3 (racemic) [rosiglitazone]
# How it was run: as §1
# [6] = compound: CN1C2=C(C3=C1C(=O)N(N=C3)CC4=CC(=CC=C4)N)SC(=C2)S(=O)C
# How it was run: as §1
# [7] = compound: CN1CCC(CNc2ccc3ncc(-c4cccc(OC(F)(F)F)c4)n3n2)CC1
# How it was run: as §1
Target,log2 fold change [1],log2 fold change (volasertib),log2 fold change [2],log2 fold change (epoxomicin),log2 fold change [3],log2 fold change [4],log2 fold change [5],log2 fold change (rosiglitazone),log2 fold change [6],log2 fold change [7]
DPY19L3 (UniProt Q6ZPD9),inactive: 0.032,inactive: 0.072,inactive: 0.007,inactive: 0.127,inactive: -0.012,inactive: -0.072,inactive: 0.045,inactive: -0.013,inactive: 0.079,inactive: -0.031
DRAP1 isoform 2 (UniProt Q14919),inactive: -0.005,inactive: 0.044,inactive: -0.015,inactive: -0.001,inactive: 0.01,inactive: -0.03,inactive: -0.051,inactive: 0,inactive: -0.063,inactive: -0.058
EDF1 (UniProt O60869),inactive: -0.004,inactive: 0.087,inactive: -0.044,inactive: 0,inactive: 0.012,inactive: 0.026,inactive: -0.038,inactive: 0.016,inactive: -0.001,inactive: 0.013
DRG2 (UniProt P55039),inactive: 0.014,inactive: -0.083,inactive: 0.032,inactive: 0.011,inactive: 0.001,inactive: 0.012,inactive: 0.013,inactive: 0.022,inactive: -0.021,inactive: -0.034
EBP (UniProt Q15125),inactive: 0.104,inactive: -0.038,inactive: -0.065,inactive: -0.016,inactive: -0.053,inactive: 0.019,inactive: 0.17,inactive: 0.064,inactive: 0.09,inactive: 0.119
DNLZ (UniProt Q5SXM8),inactive: 0,inactive: 0.072,inactive: -0.039,inactive: 0.213,inactive: 0,,inactive: -0.029,inactive: 0.025,inactive: -0.089,
DNAJB4 (UniProt Q9UDY4),inactive: 0.041,inactive: -0.232,inactive: 0.07,inactive: -0.006,inactive: 0.002,inactive: 0.033,inactive: 0.017,inactive: 0.03,inactive: -0.049,inactive: -0.057
DPF2 (UniProt Q92785),inactive: -0.04,inactive: -0.064,inactive: -0.028,inactive: -0.078,inactive: 0.015,inactive: 0.058,inactive: 0.025,inactive: 0.196,inactive: 0.007,inactive: -0.027
DTWD2 (UniProt Q8NBA8),inactive: -0.047,inactive: -0.048,inactive: 0.057,inactive: -0.015,,inactive: -0.018,inactive: -0.106,,inactive: -0.066,inactive: 0.035
DOHH (UniProt Q9BU89),inactive: -0.035,inactive: -0.027,inactive: 0.031,inactive: -0.197,,inactive: -0.1,inactive: 0.145,active: 0.471,inactive: 0.025,inactive: 0.164
DYNC1I2 isoform 5 (UniProt Q13409),inactive: 0.004,inactive: 0.005,inactive: 0.004,inactive: 0.026,,inactive: -0.003,inactive: 0.002,,inactive: -0.041,inactive: -0.035
EARS2 isoform 2 (UniProt Q5JPH6),inactive: -0.308,inactive: -0.508,inactive: 0.113,inactive: 0.199,inactive: -0.329,,inactive: 0.171,inactive: 0.039,inactive: -0.143,
DNAJB14 (UniProt Q8TBM8),inactive: 0.089,inactive: -0.061,inactive: 0.028,inactive: 0.109,inactive: -0.058,inactive: -0.045,inactive: 0.077,inactive: 0.025,,inactive: -0.008
DUS3L (UniProt Q96G46),inactive: -0.162,active: -0.331,inactive: 0.017,inactive: 0.087,,inactive: 0.02,inactive: 0.028,,inactive: 0.021,inactive: -0.04
EDC3 (UniProt Q96F86),inactive: -0.006,inactive: -0.192,inactive: 0.057,inactive: 0.003,,inactive: -0.031,inactive: 0.058,,inactive: 0.094,inactive: -0.251
DNM2 (UniProt P50570),inactive: -0.013,inactive: -0.015,inactive: 0.043,inactive: 0.029,,inactive: -0.091,inactive: 0.037,,inactive: -0.044,active: -0.349
"DPY19L1, A0A1B0GW05",inactive: -0.044,inactive: -0.201,inactive: -0.018,inactive: 0.014,inactive: 0.074,,inactive: 0.097,inactive: 0.08,inactive: -0.004,
EDC4 (UniProt Q6P2E9),inactive: -0.126,active: -0.47,inactive: 0.042,inactive: 0,,inactive: 0.039,inactive: -0.006,,inactive: 0.07,inactive: -0.084
DNAJC1 (UniProt Q96KC8),inactive: -0.097,inactive: -0.185,inactive: 0.024,inactive: 0.037,,inactive: 0.014,inactive: 0.002,,inactive: -0.01,inactive: -0.144
ECD isoform 3 (UniProt O95905),inactive: 0.038,inactive: -0.3,inactive: 0.056,inactive: 0.011,inactive: -0.072,inactive: -0.069,inactive: -0.033,inactive: 0.027,inactive: -0.081,inactive: -0.097
DNASE2 (UniProt O00115),inactive: -0.134,inactive: -0.064,inactive: -0.027,inactive: 0.016,inactive: 0.041,inactive: 0.018,inactive: -0.049,inactive: -0.022,inactive: -0.044,inactive: -0.054
DNPEP (UniProt Q9ULA0),inactive: 0.019,inactive: 0.059,inactive: -0.004,inactive: 0.027,inactive: 0.012,inactive: -0.021,inactive: -0.003,inactive: -0.004,inactive: -0.058,inactive: 0.017
DPM3 isoform 2 (UniProt Q9P2X0),inactive: 0,inactive: 0.129,inactive: -0.107,inactive: 0.186,inactive: 0.049,,inactive: 0.017,inactive: 0.004,inactive: -0.007,
DNMT1 isoform 2 (UniProt P26358),inactive: 0.002,inactive: 0.01,inactive: 0.029,inactive: 0.005,inactive: -0.001,inactive: -0.022,inactive: 0.012,inactive: 0.007,inactive: -0.066,inactive: 0.079
ECE1 (UniProt P42892),inactive: -0.259,inactive: -0.295,inactive: 0.013,inactive: 0.038,inactive: 0,inactive: -0.109,inactive: -0.055,inactive: 0.08,inactive: 0.082,inactive: -0.001
DYM (UniProt Q7RTS9),inactive: -0.162,inactive: -0.442,inactive: 0.074,inactive: 0.002,inactive: -0.085,inactive: -0.002,inactive: 0.144,inactive: 0.017,,inactive: -0.199
ECH1 (UniProt Q13011),inactive: 0.019,inactive: 0.276,inactive: 0.024,inactive: 0.036,,inactive: -0.021,inactive: 0.023,,inactive: -0.041,active: 0.694
ECI1 (UniProt P42126),inactive: 0.01,inactive: 0.061,inactive: -0.042,inactive: -0.027,inactive: 0.001,inactive: 0.009,inactive: 0.014,inactive: 0,inactive: -0.025,inactive: 0.031
DYNC1LI2 (UniProt O43237),inactive: 0.324,inactive: -0.021,inactive: -0.181,inactive: -0.072,,inactive: -0.041,inactive: 0.024,,inactive: -0.007,inactive: 0.101
ECPAS (UniProt Q5VYK3),inactive: -0.188,active: -0.602,inactive: 0.093,active: 0.614,,inactive: -0.029,inactive: 0.079,,inactive: 0.026,inactive: -0.143
